Measured values taken from patent US20150074844A1.
No constants are given. Whether binding was seen depends on the method and setting. Binding seen in cells or lysates may run through a third protein. Some results given as binding are weak or reduced against the parent protein; the word gives no strength.

Amino acid sequences for entries named in this document (tags omitted). A change or cut given only in a name is not applied to a line headed by its entry.
UniProt P49597: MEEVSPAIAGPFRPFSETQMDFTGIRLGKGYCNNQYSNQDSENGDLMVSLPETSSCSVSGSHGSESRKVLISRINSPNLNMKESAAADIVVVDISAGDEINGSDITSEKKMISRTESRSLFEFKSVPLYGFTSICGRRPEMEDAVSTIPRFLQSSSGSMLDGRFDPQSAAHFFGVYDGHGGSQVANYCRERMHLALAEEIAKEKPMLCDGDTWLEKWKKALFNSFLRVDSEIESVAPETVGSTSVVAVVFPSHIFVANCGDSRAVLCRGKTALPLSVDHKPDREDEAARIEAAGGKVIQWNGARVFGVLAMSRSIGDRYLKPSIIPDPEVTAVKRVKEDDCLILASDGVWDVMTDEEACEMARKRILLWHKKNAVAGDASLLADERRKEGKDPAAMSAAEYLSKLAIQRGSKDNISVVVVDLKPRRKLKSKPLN
UniProt O49686: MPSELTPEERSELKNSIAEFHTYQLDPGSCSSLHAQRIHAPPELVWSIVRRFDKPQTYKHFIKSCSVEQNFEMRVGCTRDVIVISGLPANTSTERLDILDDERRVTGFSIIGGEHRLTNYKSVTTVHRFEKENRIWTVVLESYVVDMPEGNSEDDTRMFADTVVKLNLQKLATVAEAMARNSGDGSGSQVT

Target: ABI1 without tag (purified recombinant) (Arabidopsis) (UniProt P49597)
Assay: His pull-down of purified recombinant proteins, SDS-PAGE/Coomassie; ABA-dependent

binding: binds
Substance: His-tagged PYR1 (from UniProt O49686 1-191) (receptor)
